# Some of the results follow. Small differences around the control level are noise.
# By UniProt entry, the sequences of proteins in these tests, tags left out. Where a name states a change or a piece, a line headed by the entry shows the natural chain unless it says otherwise.
# UniProt Q9JKR6: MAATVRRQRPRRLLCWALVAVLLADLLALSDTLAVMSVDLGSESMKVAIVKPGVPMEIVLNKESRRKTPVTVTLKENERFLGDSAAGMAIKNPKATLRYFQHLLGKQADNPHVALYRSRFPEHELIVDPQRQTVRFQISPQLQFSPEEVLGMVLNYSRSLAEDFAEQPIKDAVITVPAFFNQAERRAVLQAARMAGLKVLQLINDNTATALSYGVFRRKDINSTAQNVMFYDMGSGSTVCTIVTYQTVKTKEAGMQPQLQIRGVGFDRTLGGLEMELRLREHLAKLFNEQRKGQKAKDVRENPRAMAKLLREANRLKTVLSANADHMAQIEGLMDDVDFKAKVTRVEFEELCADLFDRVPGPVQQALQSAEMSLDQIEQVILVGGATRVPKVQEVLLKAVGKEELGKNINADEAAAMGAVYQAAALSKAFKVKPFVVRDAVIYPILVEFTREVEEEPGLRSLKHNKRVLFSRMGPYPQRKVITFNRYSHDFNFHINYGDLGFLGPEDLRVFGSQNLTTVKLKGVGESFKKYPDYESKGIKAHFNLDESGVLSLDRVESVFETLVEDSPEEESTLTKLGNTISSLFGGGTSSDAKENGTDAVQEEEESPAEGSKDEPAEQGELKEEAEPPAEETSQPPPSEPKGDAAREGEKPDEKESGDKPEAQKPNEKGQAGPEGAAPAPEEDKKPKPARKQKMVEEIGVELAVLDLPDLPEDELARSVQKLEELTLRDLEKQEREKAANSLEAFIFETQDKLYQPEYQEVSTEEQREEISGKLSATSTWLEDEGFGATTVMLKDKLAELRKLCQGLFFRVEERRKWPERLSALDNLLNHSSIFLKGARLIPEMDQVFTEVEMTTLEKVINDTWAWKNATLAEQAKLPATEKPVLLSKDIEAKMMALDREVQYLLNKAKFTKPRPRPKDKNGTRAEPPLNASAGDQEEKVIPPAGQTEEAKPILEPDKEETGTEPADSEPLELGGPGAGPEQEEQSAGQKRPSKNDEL
# UniProt Q9JMK0: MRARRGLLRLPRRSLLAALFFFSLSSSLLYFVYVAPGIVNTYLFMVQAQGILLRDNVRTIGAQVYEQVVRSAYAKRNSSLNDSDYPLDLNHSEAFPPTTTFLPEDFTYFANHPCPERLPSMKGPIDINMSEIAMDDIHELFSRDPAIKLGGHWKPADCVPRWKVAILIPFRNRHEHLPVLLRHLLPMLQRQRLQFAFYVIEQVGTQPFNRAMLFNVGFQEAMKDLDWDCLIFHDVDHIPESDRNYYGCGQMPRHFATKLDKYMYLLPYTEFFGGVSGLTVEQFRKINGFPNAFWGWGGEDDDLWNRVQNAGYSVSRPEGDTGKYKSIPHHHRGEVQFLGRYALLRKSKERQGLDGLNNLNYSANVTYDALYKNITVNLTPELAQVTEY
# UniProt Q9ESD7: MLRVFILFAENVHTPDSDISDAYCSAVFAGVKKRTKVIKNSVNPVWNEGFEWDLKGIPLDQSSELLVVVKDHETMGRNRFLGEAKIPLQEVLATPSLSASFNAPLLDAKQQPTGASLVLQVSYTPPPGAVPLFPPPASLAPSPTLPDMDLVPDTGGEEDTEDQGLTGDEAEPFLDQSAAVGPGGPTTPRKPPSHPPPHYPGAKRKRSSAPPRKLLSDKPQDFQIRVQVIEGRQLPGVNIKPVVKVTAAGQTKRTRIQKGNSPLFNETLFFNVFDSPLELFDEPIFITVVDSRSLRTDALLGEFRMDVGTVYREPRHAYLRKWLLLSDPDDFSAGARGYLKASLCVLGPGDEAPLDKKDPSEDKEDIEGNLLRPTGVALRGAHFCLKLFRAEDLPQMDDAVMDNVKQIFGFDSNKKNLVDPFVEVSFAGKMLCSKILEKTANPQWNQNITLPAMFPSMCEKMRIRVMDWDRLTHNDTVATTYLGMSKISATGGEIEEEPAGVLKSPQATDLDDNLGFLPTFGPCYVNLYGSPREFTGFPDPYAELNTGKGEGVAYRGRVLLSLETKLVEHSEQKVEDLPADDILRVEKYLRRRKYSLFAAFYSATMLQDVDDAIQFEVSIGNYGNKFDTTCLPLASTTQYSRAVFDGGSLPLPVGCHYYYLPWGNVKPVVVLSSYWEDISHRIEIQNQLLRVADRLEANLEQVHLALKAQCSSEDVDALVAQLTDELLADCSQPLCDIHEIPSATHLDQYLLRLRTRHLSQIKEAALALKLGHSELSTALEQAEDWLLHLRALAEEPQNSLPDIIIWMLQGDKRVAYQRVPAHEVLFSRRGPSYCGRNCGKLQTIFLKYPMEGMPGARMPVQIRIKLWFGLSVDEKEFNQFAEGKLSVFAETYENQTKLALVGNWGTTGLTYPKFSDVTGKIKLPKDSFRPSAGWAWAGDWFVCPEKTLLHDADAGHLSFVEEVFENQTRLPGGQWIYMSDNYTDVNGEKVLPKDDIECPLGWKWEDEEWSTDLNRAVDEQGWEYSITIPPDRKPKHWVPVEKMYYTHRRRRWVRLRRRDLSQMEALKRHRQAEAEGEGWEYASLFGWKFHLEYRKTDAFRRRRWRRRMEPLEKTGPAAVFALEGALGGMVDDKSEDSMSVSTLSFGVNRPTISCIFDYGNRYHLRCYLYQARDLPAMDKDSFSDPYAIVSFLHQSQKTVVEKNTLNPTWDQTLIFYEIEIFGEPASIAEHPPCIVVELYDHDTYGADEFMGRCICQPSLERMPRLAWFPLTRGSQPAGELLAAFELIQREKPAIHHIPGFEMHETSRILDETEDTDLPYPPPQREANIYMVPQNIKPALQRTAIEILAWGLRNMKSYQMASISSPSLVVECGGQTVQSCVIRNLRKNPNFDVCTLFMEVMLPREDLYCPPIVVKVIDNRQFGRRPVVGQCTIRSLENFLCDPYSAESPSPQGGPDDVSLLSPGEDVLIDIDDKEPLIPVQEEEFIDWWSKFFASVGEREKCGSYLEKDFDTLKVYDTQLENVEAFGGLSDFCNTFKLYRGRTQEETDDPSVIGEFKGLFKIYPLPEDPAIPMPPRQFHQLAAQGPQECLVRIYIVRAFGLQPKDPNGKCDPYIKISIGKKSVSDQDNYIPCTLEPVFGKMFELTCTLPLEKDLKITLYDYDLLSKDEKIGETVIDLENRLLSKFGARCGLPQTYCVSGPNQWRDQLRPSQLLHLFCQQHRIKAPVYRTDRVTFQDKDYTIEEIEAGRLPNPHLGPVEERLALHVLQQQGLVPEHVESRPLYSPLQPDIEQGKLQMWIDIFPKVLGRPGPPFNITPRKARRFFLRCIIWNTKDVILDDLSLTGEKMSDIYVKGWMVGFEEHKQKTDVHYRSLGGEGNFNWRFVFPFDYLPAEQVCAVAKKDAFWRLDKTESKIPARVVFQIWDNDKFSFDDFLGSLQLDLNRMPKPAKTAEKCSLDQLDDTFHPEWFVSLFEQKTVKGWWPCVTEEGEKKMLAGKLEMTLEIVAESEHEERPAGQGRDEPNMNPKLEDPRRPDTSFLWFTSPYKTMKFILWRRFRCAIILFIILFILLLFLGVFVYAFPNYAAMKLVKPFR
# UniProt Q9ESN6: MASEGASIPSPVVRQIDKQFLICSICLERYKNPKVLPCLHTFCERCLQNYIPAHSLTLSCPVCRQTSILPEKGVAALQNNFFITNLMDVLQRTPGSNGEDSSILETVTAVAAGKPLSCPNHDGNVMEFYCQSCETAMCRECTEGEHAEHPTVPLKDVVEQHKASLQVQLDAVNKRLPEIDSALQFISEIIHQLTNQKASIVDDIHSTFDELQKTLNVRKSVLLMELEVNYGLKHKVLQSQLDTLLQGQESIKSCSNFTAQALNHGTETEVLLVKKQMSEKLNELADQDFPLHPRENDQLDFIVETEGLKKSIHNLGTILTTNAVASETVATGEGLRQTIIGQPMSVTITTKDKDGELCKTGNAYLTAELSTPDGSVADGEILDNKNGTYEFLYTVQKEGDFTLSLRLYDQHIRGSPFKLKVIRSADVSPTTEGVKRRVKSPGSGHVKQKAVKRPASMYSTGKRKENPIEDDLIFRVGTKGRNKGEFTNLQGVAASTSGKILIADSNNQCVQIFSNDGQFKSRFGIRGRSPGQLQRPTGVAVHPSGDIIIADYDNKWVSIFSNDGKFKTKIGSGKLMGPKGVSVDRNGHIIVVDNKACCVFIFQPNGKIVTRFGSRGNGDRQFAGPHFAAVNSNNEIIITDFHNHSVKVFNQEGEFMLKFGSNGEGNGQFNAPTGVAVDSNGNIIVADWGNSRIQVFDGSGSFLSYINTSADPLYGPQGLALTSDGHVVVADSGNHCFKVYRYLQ
# UniProt Q9JIB0: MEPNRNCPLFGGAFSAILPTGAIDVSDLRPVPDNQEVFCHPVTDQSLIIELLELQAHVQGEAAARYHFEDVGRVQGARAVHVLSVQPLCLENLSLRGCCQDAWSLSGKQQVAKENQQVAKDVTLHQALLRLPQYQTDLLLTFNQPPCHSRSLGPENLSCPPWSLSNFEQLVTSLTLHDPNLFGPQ
# UniProt Q9JJZ4: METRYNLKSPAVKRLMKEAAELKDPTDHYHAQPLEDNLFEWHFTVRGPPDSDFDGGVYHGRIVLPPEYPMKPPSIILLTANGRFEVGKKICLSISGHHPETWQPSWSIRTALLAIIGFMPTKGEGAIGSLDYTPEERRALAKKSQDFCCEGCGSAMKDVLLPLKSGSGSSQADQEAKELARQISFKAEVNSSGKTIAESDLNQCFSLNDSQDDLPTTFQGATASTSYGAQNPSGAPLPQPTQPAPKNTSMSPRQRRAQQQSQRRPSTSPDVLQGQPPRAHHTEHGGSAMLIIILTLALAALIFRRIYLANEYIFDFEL
# UniProt Q9JHI2: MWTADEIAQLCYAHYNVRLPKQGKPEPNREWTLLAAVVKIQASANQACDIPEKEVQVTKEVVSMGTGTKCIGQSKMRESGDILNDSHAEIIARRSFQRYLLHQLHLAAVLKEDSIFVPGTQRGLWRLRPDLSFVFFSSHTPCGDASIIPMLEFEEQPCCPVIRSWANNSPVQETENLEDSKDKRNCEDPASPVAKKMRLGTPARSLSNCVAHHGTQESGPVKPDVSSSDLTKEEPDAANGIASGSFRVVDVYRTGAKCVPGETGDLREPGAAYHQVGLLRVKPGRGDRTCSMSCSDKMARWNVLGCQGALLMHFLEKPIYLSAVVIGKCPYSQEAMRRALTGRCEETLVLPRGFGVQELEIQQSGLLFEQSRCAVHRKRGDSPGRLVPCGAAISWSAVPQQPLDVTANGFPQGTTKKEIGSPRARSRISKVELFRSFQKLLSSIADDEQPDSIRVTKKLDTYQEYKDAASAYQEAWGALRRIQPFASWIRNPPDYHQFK
# UniProt Q9JI99: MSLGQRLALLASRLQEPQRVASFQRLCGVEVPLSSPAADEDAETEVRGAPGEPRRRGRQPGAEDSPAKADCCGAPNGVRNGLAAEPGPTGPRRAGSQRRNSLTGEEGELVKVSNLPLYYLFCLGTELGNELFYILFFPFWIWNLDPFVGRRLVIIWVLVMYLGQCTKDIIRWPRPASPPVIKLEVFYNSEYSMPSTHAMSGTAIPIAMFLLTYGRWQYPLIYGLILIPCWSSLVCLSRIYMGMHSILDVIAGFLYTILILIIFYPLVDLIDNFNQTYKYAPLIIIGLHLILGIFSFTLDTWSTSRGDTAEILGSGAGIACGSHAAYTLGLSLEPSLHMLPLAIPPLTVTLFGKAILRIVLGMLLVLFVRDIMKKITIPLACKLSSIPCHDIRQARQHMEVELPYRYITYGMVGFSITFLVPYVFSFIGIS
# UniProt Q9JJY3: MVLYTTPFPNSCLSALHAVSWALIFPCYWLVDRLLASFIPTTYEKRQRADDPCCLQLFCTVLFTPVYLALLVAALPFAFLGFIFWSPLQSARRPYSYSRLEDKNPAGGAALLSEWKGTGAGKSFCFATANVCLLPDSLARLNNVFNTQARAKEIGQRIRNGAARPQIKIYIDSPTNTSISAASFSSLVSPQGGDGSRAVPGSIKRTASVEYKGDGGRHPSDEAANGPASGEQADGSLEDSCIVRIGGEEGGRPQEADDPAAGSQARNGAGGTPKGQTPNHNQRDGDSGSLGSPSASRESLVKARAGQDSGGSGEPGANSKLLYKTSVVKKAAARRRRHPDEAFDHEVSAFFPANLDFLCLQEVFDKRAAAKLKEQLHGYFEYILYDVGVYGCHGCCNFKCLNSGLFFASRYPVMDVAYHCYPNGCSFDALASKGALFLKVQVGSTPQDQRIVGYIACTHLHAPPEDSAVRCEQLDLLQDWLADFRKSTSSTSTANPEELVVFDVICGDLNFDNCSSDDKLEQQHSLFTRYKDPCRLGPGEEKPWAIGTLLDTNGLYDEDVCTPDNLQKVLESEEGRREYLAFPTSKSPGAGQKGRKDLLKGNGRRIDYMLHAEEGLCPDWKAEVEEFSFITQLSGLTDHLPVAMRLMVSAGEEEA
# UniProt Q9ESP1: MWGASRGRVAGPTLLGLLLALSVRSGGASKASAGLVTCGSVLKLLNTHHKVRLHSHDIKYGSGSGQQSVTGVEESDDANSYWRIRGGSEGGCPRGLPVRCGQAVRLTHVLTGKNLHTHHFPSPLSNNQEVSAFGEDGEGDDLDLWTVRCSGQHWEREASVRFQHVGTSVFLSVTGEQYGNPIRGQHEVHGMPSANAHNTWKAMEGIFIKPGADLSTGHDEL
# Compound: CN[C@@H]1C[C@H]2O[C@@](C)([C@@H]1OC)n1c3ccccc3c3c4c(c5c6ccccc6n2c5c31)C(=O)NC4 [staurosporine]
# Experiment: log2 fold change of tryptic peptide abundance, ligand vs vehicle (limited proteolysis) (log2 ratio); higher = more trypsin-susceptible (destabilized)
# Conditions: ligand concentration: 20 uM; sample: mouse liver crude lysate; replicate design: treated separately
row,Target,log2 fold change
1,"UniProt Q9JKR6 (peptide sequence: EAGMQPQLQIR, peptide start residue: 252)",0.123
2,"UniProt Q9JMK0 (peptide sequence: SIPHHHRGEVQFLGR, peptide start residue: 326)",0.0362
3,"UniProt Q9ESD7 (peptide sequence: KPPSHPPPHYPGAK, peptide start residue: 190)",0.142
4,"UniProt Q9ESN6 (peptide sequence: RKENPIEDDLIFR, peptide start residue: 463)",0.119
5,"UniProt Q9JIB0 (peptide sequence: YHFEDVGR, peptide start residue: 66)",0.307
6,"UniProt Q9JLJ2 (peptide sequence: HGYYMTPCILTNCR, peptide start residue: 369)",0.534
7,"UniProt Q9JJ89 (peptide sequence: AEIVQVIR, peptide start residue: 382)",-0.306
8,"UniProt Q9JJZ4 (peptide sequence: SGSGSSQADQEAK, peptide start residue: 165)",-0.641
9,"UniProt Q9JHI2 (peptide sequence: NPPDYHQFK, peptide start residue: 491)",0.468
10,"UniProt Q9JI99 (peptide sequence: LSSIPCHDIR, peptide start residue: 383)",0.36
11,"UniProt Q9JJY3 (peptide sequence: DGDSGSLGSPSASR, peptide start residue: 284)",0.0771
12,"UniProt Q9ESP1 (peptide sequence: LTHVLTGK, peptide start residue: 106)",-0.264
13,"UniProt Q9JMB0 (peptide sequence: DKPVTVSLKDFQCEDHISK, peptide start residue: 174)",-0.468

# Exported with tabs: entries from further up
row	Target	log2 fold change
2	UniProt Q9JMK0 (peptide sequence: SIPHHHRGEVQFLGR, peptide start residue: 326)	0.0362
3	UniProt Q9ESD7 (peptide sequence: KPPSHPPPHYPGAK, peptide start residue: 190)	0.142
